{"source": "patent EP2647374A1", "about": "“Nutritional compositions including beta-hydroxy-beta-methylbutyrate for regulating transcription factors” (Abbott Laboratories, Inc., priority 2012, dated 2013)", "type_in_all_cases": "cell-based, rat", "key": {"L6 myotubes [1]": {"tested_on": "L6 myotubes", "test": "Protein degradation assay ([3H]Tyr release) in dexamethasone-treated myotubes", "details": "dexamethasone 5 µM alone, 48 hours", "method": "(§1) Cell culture. The L6.C11 rat skeletal muscle myoblast line (ECACC No. 92102119) was grown in DMEM containing 10% (v/v) FCS, 2 mmol/l Glutamine plus 100 units/ml penicillin and 0.1 mg/ml streptomycin (Sigma) in an atmosphere of air/CO2 (95:5) and maintained at subconfluent densities in growth media. Cells were differentiated to myotubes by exchanging the growth medium for a differentiation medium consisting of DMEM containing 2% (v/v) FCS for 3-4 days (>50% fusion into multinucleated myotubes).\n(§2) Protein synthesis and degradation assays. […] At the completion of the labeling period, cultures were rinsed three times with PBS, cells were lysed with sodium desoxycholate 0.1%/NaOH 0.1 M and protein was precipitated with cold 10% TCA in PBS overnight, rinsed once with cold 10% TCA, solubilized in NaOH 0.5 M, neutralized with HCl 0.5 M and mixed with scintillation fluid, and radioactivity was determined using a scintillation counter. […] Degradation rates were determined according to Hong & Forsberg, 1995.\nTo study the effects of HMB and Leu on protein degradation induced by dexamethasone, L6 differentiated myotubes were first differentiated to myotubes for 3 days in 2% FBS, and then the medium was changed to 10% FBS for the remainder of the experiment. […] After the incubation, protein degradation for each condition was calculated. […] Results are expressed as mean ± SEM of six independent experiments."}, "L6 myotubes [2]": {"tested_on": "L6 myotubes", "test": "Protein synthesis assay ([3H]Tyr incorporation) in dexamethasone-treated myotubes", "details": "dexamethasone 5 µM alone", "method": "as §1, §2\nParticularly, L6 myotubes were treated with HMB (25 µM) or Leu (10 mM) for 2 hours in the presence or absence of dexamethasone (5 µM). […] After the incubation, protein synthesis for each condition was calculated. […] Results are expressed as means ± SEM of six independent experiments."}, "PKB/Akt": {"tested_on": "PKB/Akt", "test": "Western blot of phospho-PKB/Akt vs total PKB/Akt in L6 myotubes", "details": "dexamethasone 5 µM alone, 30 minutes", "method": "(§3) Protein phosphorylation analysis. L6 myotubes were incubated with HMB or Leu in the absence or presence of dexamethasone for 30 minutes. After treatment, plates were flash frozen in liquid nitrogen and were scraped with 50 µl/60 mm/plate of cold 30 mmol/L Tris-HCl pH 7.4, 25 mmol/L NaCl, 1% (v/v) Triton X-100, 0.1% SDS, 10 mmol/L sodium fluoride, 10 mmol/L sodium pyrophosphate, 1 mmol/L sodium orthovanadate, 1 mmol/L EGTA, 20 nmol/L okadaic acid, 10 µg/ml aprotinin, 10 µg/ml leupeptin, 10 µg/ml pepstatin. After 10 minutes on ice, extracts were centrifuged at 13000 g for 10 minutes at 4°C. Protein concentration from the supernatants was measured using the Bio-Rad Protein Assay. […]\n(§4) L6 Myoblasts were differentiated to myotubes for 3 days in 2% FBS. […] Cells were lysed in phosphorylation buffer and analyzed by Western blot using an anti-phospho PKB/Akt antibody (FIG. 3A), anti-phospho mTOR antibody (FIG. 3B), or anti-atrogin-1 antibody (FIG. 3C). […] The lower panels of each of FIGS. 3A-3C show densitometric quantification of: phospho-PKB/total PKB protein abundance (FIG. 3A); phospho-mTOR/total mTOR protein abundance (FIG. 3B); or atrogin-1 protein abundance using Histone H3 (FIG. 3C) as a reference control. Results are expressed as means ± SEM of four independent experiments."}, "mTOR": {"tested_on": "mTOR", "test": "Western blot of phospho-mTOR vs total mTOR in L6 myotubes", "details": "dexamethasone 5 µM alone, 30 minutes", "method": "as §3, §4"}, "FOXO": {"tested_on": "FOXO", "test": "FOXO-responsive luciferase reporter assay in L6 cells", "details": "dexamethasone 5 µM alone, 12 hours", "from_the_text": "(§5) Reporter gene constructs. For the analysis of rat Ubiquitin (UbC) promoter, a 417 bp fragment of 417 bp flanking the transcription start point was amplified from rat genomic DNA. This fragment was similar to those that have been characterized for the human and rat promoters. The sequences of all constructs were verified by automated DNA sequencing. The Cignal FOXO Reporter (luc) kit, CCS-1022L, was provided by SABiosciences and contains a mixture of inducible FOXO-responsive firefly luciferase construct and constitutively expressing Renilla luciferase construct (40:1).\n(§6) DNA transfection assays. For transfection experiments, cells were used at 80-90% confluence. […] Luciferase activity was determined using standard reagents (Dual Luciferase method, Promega) in a luminometer (Sirius L, Berthold Technologies, Bad Wildbad, Germany) and results were standardized for Renilla luciferase activity. […] To allow comparison of the expression patterns, the data were expressed as relative changes in luciferase activity and were normalized to a value of 100%.\nTo address whether the down-regulation of atrogin-1 in HMB- pretreated cells was accompanied by an underlying regulation of the FOXO transcription factor, the total FOXO expression (monitored by using FOXO-luciferase reporter gene activity) and the amount FOXO3a transcription factor in the nucleus were analyzed. […]"}, "FOXO3a": {"tested_on": "FOXO3a", "test": "Western blot of FOXO3a in nuclear extracts of L6 cells (Histone H3 reference)", "details": "dexamethasone 5 µM alone, 12 hours", "method": "Preparation of nuclear extracts. Nuclear extracts from L6 cells were prepared following Bhavsar et al. Protein concentration was measured in nuclear extracts using the Bio-Rad Protein Assay kit. Aliquots of the extracts (40 µg) were resolved by 10% SDS-PAGE and analyzed by immunoblotting using a 1:1000 dilution of polyclonal anti-FOXO3a or anti-Histone H3 antibodies. The antigen-antibody complexes were detected with HRP-conjugated secondary antibodies using a chemiluminescence detection system (Bio-Rad).\nTo address whether the down-regulation of atrogin-1 in HMB- pretreated cells was accompanied by an underlying regulation of the FOXO transcription factor, the total FOXO expression (monitored by using FOXO-luciferase reporter gene activity) and the amount FOXO3a transcription factor in the nucleus were analyzed. L6 Myoblasts were differentiated to myotubes for 3 days in 2% FBS. After the differentiation process, medium was changed to 10% FBS for the remainder of the experiment. Myotubes were incubated in the presence or absence of HMB (25 µM) or Leu (10 mM) for 48 hours. […]\nFurther, L6 untransfected cells were treated as above, nuclear extracts were obtained as described in the material and methods section and analyzed by Western blot using an anti-FOXO3 antibody. […] Results are expressed as means ± SEM of four independent experiments."}, "ERK1/2": {"tested_on": "ERK1/2", "test": "Western blot of phospho-ERK1/2 vs total ERK1/2 in L6 myotubes", "details": "dexamethasone 5 µM alone, 30 minutes", "method": "Protein phosphorylation analysis. L6 myotubes were incubated with HMB or Leu in the absence or presence of dexamethasone for 30 minutes. After treatment, plates were flash frozen in liquid nitrogen and were scraped with 50 µl/60 mm/plate of cold 30 mmol/L Tris-HCl pH 7.4, 25 mmol/L NaCl, 1% (v/v) Triton X-100, 0.1% SDS, 10 mmol/L sodium fluoride, 10 mmol/L sodium pyrophosphate, 1 mmol/L sodium orthovanadate, 1 mmol/L EGTA, 20 nmol/L okadaic acid, 10 µg/ml aprotinin, 10 µg/ml leupeptin, 10 µg/ml pepstatin. After 10 minutes on ice, extracts were centrifuged at 13000 g for 10 minutes at 4°C. Protein concentration from the supernatants was measured using the Bio-Rad Protein Assay. Proteins (25-40 µg) were separated by SDS-PAGE and immunoblotted with selected antibodies; the immunoblots were developed by chemiluminescence detection.\nTaking into account that phosphorylation of FOXO3a by ERK is a required step for FOXO3a ubiquitination and subsequent proteosomal degradation of this transcription factor in the cytoplasm, the effect of HMB and Leu on ERK activation was also analyzed. Specifically, L6 Myoblasts were differentiated to myotubes for 3 days in 2% FBS. […] Cells were lysed in phosphorylation buffer and analyzed by Western blot using an anti-phospho ERK1/2 antibody. […] Results are expressed as means ± SEM of four independent experiments."}, "UbC promoter": {"tested_on": "UbC promoter", "test": "pGL3-UbC luciferase reporter assay in L6 myotubes", "details": "dexamethasone 5 µM alone, 48 hours", "from_the_text": "as §5, §6\nAdditionally, the effect of HMB and Leu on UbC promoter implicated in protein degradation induced by dexamethasone was analyzed. […] Results are expressed as means ± SEM of six independent experiments."}}, "note": "For at least one compound, name, drawing or mass did not settle the structure.", "data": [{"smiles": "C[C@@H]1C[C@H]2[C@@H]3CCC4=CC(=O)C=C[C@]4(C)[C@@]3(F)[C@@H](O)C[C@]2(C)[C@@]1(O)C(=O)CO", "note": "[dexamethasone]", "values": [{"measurement": "protein degradation", "setting": "L6 myotubes [1]", "value": "induced a significant increase on protein degradation"}, {"measurement": "protein synthesis", "setting": "L6 myotubes [2]", "value": "induced a significant decrease in protein synthesis"}, {"measurement": "level of phospho-AKT", "setting": "PKB/Akt", "value": "significantly reduced the level of phospho-AKT"}, {"measurement": "level of phospho mTOR", "setting": "mTOR", "value": "significantly reduced"}, {"measurement": "FOXO expression (FOXO-luciferase reporter gene activity)", "setting": "FOXO", "value": "resulted in FOXO cellular overexpression"}, {"measurement": "FOXO3a translocation from the cytoplasm to the nucleus", "setting": "FOXO3a", "value": "parallel increase in FOXO3a transcription factor translocation from the cytoplasm to the nucleus"}, {"measurement": "ERK activation (phospho-ERK/total ERK)", "setting": "ERK1/2", "value": "ERK activation was significantly blunted"}, {"measurement": "UbC promoter activity", "setting": "UbC promoter", "value": "induced an increase in the UbC promoter activity"}]}]}
